Assay results from patent US10945971B2, “Sphingosine kinase type 1 inhibitors and uses thereof” (Enzo Therapeutics, Inc., priority 2008, dated 2021).
At least one structure is not confirmed: it was looked up by name or label, or the drawing left a doubt.

Test system: LN229 cells
Assay type: cell-based
Settings: for effect on SK1-I lethality: LN229, combined with SK1-I
Protocol: Cells were plated at 10,000 cells/well in 48-well plates and allowed to attach for 24 h. Cell proliferation was measured at the indicated times with WST-1 and absorbance was measured in a plate reader at 450 nm with background subtraction at 630 nm. Cell death was detected by trypan blue exclusion assays in which the percent of blue dye incorporating cells were determined using a light microscope and a hemacytometer as described (Yacoub et al. Mol Cancer Ther 7:314-329, 2008). Apoptotic cell death was measured by staining cell nuclei with the Hoechst dye bisbenzimide and apoptotic cells were identified by condensed, fragmented nuclear regions as described previously (Sankala et al. Cancer Res 67:10466-10474, 2007). A minimum of 300 cells was scored.

For O=c1cc(N2CCOCC2)oc2c(-c3ccccc3)cccc12 [LY294002], the “effect on SK1-I lethality” value was “enhanced”.
With Oc1c2ccccc2c2c3c(cccc13)N=N2 [SP600125] the “effect on SK1-I-induced lethality” value (1 μM, combined with SK1-I) was “markedly reversed” and the “effect on SK1-I lethality” value was “markedly attenuated”.
